Data: the supplement of paper PMC11006884
This is a selection; strong and weak results do not stand in their true shares. The data scatter; read single values as rough.

Protein sequences, listed by entry. Tags and fused reporters are not part of them. Lines headed by an entry give the natural chain unless they say otherwise; changes in a name come on top.
UniProt P55196: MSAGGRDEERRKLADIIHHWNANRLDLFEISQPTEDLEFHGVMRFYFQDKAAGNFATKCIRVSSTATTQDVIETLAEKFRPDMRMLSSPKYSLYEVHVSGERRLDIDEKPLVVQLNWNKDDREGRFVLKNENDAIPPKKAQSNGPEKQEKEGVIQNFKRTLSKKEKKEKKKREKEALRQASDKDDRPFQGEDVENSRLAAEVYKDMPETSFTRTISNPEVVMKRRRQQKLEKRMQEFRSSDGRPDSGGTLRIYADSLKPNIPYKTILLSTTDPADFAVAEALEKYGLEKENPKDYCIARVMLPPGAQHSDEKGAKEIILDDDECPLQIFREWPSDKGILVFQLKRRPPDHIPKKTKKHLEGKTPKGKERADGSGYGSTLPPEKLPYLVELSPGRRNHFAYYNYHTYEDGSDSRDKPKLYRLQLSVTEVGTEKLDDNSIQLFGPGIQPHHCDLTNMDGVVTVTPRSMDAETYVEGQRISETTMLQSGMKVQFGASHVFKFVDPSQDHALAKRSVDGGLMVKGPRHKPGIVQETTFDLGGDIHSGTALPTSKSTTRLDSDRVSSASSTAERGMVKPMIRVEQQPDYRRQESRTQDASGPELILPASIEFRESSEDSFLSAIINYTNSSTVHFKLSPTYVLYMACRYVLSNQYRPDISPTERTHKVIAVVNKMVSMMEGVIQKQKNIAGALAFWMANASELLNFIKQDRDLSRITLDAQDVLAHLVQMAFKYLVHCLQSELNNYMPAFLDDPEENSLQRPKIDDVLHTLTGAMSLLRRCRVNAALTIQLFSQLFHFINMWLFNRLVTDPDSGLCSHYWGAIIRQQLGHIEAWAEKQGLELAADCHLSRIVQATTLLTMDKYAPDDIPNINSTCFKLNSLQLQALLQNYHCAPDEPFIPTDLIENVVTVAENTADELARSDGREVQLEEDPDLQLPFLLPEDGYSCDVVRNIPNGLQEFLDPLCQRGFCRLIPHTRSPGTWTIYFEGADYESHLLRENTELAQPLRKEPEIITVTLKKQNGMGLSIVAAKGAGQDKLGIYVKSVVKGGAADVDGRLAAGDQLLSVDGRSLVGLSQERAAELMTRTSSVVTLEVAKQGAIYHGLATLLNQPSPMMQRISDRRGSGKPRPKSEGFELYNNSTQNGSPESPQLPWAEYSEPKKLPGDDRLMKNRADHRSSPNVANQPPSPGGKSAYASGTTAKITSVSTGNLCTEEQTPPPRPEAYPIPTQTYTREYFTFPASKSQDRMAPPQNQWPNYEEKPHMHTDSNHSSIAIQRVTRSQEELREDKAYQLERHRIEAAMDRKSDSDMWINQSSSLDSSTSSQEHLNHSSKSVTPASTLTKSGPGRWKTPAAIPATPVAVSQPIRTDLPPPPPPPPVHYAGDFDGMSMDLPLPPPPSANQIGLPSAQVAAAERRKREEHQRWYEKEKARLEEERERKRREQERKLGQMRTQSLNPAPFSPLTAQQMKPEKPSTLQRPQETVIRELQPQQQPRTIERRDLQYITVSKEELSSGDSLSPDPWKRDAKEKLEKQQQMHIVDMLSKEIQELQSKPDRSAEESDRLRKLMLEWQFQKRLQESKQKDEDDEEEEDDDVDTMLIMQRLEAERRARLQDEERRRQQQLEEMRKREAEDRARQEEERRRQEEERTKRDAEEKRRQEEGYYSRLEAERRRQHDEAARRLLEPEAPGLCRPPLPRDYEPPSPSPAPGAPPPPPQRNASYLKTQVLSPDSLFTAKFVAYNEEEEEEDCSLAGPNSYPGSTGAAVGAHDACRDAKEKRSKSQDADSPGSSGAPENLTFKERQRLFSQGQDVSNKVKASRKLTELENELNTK
UniProt P51991: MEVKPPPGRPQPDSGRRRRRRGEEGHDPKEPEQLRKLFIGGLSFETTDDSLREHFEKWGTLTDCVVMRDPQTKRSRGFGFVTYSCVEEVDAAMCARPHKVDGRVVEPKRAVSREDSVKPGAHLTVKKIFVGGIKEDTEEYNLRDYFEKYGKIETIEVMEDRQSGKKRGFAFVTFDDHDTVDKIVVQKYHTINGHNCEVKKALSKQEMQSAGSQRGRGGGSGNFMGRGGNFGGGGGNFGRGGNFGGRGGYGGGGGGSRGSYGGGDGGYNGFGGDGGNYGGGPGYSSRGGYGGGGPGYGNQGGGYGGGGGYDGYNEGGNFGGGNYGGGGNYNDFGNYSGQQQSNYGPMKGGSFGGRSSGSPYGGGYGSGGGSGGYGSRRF
UniProt P55769: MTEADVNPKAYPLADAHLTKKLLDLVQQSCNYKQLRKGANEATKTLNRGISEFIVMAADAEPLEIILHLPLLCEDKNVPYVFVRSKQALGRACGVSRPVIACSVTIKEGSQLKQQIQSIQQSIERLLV
UniProt P56182: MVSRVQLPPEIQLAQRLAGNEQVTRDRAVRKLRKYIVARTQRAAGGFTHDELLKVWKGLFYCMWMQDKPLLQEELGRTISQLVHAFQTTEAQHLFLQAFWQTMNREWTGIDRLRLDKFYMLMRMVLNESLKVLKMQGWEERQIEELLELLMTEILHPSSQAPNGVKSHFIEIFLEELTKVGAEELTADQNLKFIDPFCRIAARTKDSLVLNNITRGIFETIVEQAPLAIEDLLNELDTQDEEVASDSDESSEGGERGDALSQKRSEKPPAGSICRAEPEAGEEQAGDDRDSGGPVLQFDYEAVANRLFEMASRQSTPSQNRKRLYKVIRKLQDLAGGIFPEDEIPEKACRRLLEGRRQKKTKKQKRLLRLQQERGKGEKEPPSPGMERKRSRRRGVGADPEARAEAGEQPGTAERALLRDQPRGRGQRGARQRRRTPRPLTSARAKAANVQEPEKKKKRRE
UniProt P55265: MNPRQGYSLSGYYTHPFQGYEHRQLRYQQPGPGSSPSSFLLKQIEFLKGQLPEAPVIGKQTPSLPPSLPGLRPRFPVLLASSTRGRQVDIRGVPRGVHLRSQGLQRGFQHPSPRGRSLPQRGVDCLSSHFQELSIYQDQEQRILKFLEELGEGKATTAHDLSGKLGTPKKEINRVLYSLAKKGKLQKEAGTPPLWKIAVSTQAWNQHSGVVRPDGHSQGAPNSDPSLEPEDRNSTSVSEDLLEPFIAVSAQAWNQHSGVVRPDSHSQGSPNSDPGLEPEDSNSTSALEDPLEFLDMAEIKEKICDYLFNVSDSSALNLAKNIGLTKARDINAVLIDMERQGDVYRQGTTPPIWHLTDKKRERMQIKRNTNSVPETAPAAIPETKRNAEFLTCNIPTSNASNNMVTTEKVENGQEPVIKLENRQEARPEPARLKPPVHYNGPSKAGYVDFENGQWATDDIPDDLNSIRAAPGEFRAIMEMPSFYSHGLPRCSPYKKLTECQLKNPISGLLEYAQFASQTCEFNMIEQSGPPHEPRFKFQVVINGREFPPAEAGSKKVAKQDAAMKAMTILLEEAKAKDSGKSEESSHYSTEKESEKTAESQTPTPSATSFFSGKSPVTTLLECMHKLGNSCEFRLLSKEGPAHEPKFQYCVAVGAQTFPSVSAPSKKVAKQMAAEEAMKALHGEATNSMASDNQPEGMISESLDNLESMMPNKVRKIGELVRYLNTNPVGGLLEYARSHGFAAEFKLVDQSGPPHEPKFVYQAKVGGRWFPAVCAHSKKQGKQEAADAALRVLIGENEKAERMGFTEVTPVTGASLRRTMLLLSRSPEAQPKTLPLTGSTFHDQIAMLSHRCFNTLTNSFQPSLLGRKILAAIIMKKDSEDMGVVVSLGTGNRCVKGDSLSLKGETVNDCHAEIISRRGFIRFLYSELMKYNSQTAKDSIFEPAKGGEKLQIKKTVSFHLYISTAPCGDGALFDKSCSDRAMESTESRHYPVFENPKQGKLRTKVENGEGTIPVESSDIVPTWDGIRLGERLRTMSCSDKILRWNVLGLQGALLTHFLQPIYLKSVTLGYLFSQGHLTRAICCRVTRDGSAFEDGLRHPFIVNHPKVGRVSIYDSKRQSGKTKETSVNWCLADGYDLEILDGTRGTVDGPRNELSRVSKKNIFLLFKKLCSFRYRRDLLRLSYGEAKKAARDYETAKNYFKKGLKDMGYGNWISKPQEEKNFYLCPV
UniProt P53992: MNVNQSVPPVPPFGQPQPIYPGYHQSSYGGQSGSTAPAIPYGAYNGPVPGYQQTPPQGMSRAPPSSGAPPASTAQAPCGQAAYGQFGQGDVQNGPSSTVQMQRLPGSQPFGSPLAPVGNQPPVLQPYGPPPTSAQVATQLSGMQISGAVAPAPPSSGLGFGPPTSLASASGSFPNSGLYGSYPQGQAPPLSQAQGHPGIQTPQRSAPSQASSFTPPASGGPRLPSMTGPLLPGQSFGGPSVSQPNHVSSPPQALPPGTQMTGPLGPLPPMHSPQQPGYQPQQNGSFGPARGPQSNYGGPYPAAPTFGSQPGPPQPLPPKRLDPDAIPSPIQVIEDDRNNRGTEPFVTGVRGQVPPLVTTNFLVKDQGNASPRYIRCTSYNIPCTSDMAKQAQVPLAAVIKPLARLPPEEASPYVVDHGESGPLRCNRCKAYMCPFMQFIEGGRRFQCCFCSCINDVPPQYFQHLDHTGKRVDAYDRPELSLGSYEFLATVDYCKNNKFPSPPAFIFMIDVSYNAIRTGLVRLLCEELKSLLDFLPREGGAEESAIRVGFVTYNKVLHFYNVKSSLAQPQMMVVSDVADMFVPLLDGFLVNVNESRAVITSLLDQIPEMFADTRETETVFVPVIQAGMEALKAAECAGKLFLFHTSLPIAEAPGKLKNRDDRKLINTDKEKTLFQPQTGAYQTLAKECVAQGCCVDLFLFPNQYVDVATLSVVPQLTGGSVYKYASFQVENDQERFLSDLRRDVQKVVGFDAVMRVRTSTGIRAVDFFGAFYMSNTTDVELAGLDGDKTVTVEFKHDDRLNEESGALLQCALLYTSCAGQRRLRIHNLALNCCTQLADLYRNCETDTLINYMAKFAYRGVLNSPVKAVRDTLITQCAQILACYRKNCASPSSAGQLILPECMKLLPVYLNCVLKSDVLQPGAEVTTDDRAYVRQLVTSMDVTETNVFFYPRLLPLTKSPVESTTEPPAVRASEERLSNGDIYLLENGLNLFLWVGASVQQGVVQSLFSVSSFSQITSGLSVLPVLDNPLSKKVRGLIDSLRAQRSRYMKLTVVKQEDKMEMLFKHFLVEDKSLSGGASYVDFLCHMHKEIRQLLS
UniProt P60604: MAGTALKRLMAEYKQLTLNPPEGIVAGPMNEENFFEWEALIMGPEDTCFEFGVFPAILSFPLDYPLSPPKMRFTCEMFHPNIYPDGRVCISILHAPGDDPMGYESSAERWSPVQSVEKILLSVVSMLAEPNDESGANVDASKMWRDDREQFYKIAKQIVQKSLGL
UniProt P52298: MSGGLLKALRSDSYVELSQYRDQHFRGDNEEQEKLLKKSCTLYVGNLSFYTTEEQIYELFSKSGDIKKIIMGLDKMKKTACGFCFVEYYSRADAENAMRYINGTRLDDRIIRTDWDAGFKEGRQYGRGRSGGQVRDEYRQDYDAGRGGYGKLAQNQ
UniProt P60174, whole entry, looked up: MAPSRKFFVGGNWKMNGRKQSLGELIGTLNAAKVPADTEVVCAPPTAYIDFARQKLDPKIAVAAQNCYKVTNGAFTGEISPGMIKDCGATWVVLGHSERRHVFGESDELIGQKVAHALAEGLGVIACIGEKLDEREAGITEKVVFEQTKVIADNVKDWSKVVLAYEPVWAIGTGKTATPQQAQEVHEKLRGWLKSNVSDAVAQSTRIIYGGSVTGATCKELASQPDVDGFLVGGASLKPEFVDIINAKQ
UniProt P61289: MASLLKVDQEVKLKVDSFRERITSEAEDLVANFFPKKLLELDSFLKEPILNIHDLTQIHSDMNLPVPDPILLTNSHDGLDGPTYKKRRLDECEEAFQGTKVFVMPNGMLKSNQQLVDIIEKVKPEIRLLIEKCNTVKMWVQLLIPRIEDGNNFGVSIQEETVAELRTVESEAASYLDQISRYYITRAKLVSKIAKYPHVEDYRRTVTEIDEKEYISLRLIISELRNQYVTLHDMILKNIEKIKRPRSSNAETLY
UniProt P51665: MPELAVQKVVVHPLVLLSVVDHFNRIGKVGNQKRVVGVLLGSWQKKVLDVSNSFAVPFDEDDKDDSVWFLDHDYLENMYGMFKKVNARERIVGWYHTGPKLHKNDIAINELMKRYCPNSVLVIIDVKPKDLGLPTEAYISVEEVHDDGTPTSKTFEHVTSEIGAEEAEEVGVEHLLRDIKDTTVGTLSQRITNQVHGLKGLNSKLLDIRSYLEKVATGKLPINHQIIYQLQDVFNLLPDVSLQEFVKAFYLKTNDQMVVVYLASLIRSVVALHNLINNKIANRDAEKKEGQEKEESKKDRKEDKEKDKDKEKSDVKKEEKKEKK
UniProt P53701: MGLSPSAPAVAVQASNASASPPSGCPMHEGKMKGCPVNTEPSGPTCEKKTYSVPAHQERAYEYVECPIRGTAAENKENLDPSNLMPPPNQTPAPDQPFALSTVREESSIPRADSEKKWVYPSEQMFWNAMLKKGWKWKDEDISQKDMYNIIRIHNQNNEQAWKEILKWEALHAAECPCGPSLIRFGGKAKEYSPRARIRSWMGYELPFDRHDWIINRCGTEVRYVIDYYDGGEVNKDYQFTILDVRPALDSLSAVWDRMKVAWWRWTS

Compound: COC(=O)/C=C/c1ccccc1 [methyl cinnamate]
Test: log2 ratio of iodoacetamide-alkyne labeling of the cysteine site, DMSO over compound (competition); higher = stronger covalent engagement of the cysteine by the compound, active = 1 or more
Settings: 500 µM; treatment time 1 h; system: HEK293T cell lysate
Summary of the method: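 After 1 h at ambient temperature with vehicle or electrophile (500 µM), HEK293T lysate (2 mg/mL) was labelled for 1 h with iodoacetamide alkyne and clicked to sCIP-TMT reagents. Pooled samples were trypsin-digested overnight at 37 °C, streptavidin-enriched, acid-eluted and analysed by Orbitrap Eclipse LC-MS/MS with FAIMS, then quantified in FragPipe over three replicates with duplicate channels. A cysteine's log2 competition ratio is its mean control-channel over mean compound-channel reporter intensity. Cysteines quantified in only one replicate were not included.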

log2 ratio of iodoacetamide-alkyne labeling, inactive:
UniProt P55196_C960 -0.0203
UniProt P60866_C70 0.213
UniProt P56134_C7 0.419
UniProt P61221_C88 0.0838
COPA C380 (UniProt P53621) 0.181
UniProt P61970_C114 0.397
PEX3 C283 (UniProt P56589) 0.0579
HNRNPA3 C85 (UniProt P51991) -0.00216
UniProt P55769_C73 -0.2
RRP1 C274 (UniProt P56182) 0.339
UniProt P55072_C691 -0.0827
ADAR C851 (UniProt P55265) -0.088
BLM C361 (UniProt P54132) 0.461
UniProt P61978_C132 0.189
EIF3B C384 (UniProt P55884) -0.106
SEC24C C886 (UniProt P53992) -0.395
AK2 C40 (UniProt P54819) 0.00613
UniProt P60604_C89 0.0553
NCBP2 C81 (UniProt P52298) 0.204
TPI1 C104 (UniProt P60174) 0.172
UniProt P55196_C324 0.265
METAP1 C14 (UniProt P53582) 0.393
CSE1L C85 (UniProt P55060) 0.0512
MSH6 C694 (UniProt P52701) -0.0912
RARS C369 (UniProt P54136) 0.0319
UniProt P61289_C92 0.311
METAP1 C9 (UniProt P53582) 0.393
ALDH18A1 C612 (UniProt P54886) -0.0501
PSMD7 C116 (UniProt P51665) 0.174
ADAR C304 (UniProt P55265) 0.178
HCCS C66 (UniProt P53701) 0.167
NUP98 C1590 (UniProt P52948) 0.223
HDGF C12 (UniProt P51858) 0.306
UniProt P61927_C19 0.129
UniProt P61163_C34 0.277
UniProt P60228_C250 0.477
MSH6 C1337 (UniProt P52701) 0.163
ADAR C630 (UniProt P55265) 0.156

Looked up one by one from above, 2 records:
log2 ratio of iodoacetamide-alkyne labeling, inactive:
TPI1 C104 (UniProt P60174) 0.172
ALDH18A1 C612 (UniProt P54886) -0.0501
